Data: PubChem BioAssay AID651640 (Broad Institute, 2012)
The campaign covered roughly 350,000 compounds. About 6,000 (1.7%) were called active. Inconclusive means that the source gave no clear call. Such entries were picked first, then a sample of the others. No stated cut-off is given here; in the data, active means CPE inhibition above about 20% (passing the limit was not always enough); inconclusive means no clear call, values can overlap the other calls; tested in BHK-21 cells.

assay: protection of cells from dengue 2 killing – plate reader, single concentration, primary screen (AID 651640); details: DENV2-infected cells, cytopathic effect rescue, at 9.99 µM, hits give high values;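 further: 0% = median of neutral control wells and 100% = median of positive control wells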

Row | Structure (SMILES) | CPE inhibition
1 | C[C@H](CO)N1C[C@H](C)[C@@H](CN(C)C(=O)Nc2ccc3c(c2)OCO3)Oc2ccc(NC(=O)C3CCCCC3)cc2C1=O | inconclusive: 21.1%
2 | CN(C)c1ccc(Cc2ccc(N(C)C)cc2)cc1 | inactive: -0.807%
3 | C/C(=N\NC(=O)c1ccc(Cn2cc([N+](=O)[O-])cn2)o1)c1cccc(NC(=O)C(C)C)c1 | active: 27.6%
4 | CCOC(=O)C1CCCN(CCC(=O)Nc2cc(C)cc(C)c2)C1 (configuration not stated) | inactive: 0.951%
5 | CN(Cc1ccccc1)C(=O)c1ccc(NC(=O)c2ccccc2)cc1 | inconclusive: 20.8%
6 | COc1cc(OC)cc(C(=O)NCCc2cnc[nH]2)c1 | inconclusive: 30.3%
7 | COC(=O)C[C@@H]1CC[C@@H]2[C@@H](COc3ccc(NS(=O)(=O)c4cccc(F)c4)cc3C(=O)N2C)O1 | inactive: -6.05%
8 | O=C(C[C@H]1C=C[C@H](NC(=O)CN2CCOCC2)[C@H](CO)O1)NCc1cccc(F)c1 | inactive: -1.21%
9 | CCCC(=O)Nc1ccc2c(c1)C(=O)N(C)[C@H]1CC[C@H](CC(=O)NCC3CC3)O[C@H]1CO2 | inconclusive: 25.5%
10 | O=C(O)C1C2C=CC3(CN(C4CCCC4)C(=O)C13)O2 (configuration not stated) | inconclusive: 36.6%
11 | CNC[C@@H]1OCCCC[C@@H](C)Oc2ccc(NS(=O)(=O)c3ccc(F)cc3)cc2C(=O)N([C@H](C)CO)C[C@@H]1C | inconclusive: 35.3%
12 | O=C1C(=O)N(CCCO)C(c2ccccc2)/C1=C(\O)c1ccc(Br)cc1 (configuration not stated) | inconclusive: 44.6%
13 | CCN1C(=O)[C@H]2[C@@H](c3ccc(C)cc3)N3C(=O)N(c4cccc(Br)c4)C(=O)[C@@]3(CC(C)C)[C@H]2C1=O | inconclusive: 25%
14 | CC(NC(=O)C1CCC(CNS(=O)(=O)c2ccc3c(c2)C(C)(C)C(=O)N3C)CC1)c1ccccc1 (configuration not stated) | inconclusive: 26%
15 | COc1ccc2c3c([nH]c2c1)[C@H](CO)N(C(=O)c1ccc(F)cc1)CC31CN(Cc2cccnc2)C1 | active: 44.6%
16 | CCOC(=O)[C@H]1[C@H]2COc3ccc(OC)cc3[C@@H]2N2C(=O)c3cc(OC)ccc3NC(=O)[C@@]12C | inconclusive: 49.8%
17 | Cc1ccc(CCNC(=O)CCn2ccc3cc(S(=O)(=O)N4CCCC4)ccc32)cc1 | inconclusive: 27.8%
18 | CCOc1ccc(C(=O)COC(=O)C2CCN(c3ccc(C(F)(F)F)cn3)CC2)cc1 | active: 74%
19 | O=C(COC(=O)CN1C(=O)C2CCCCC2C1=O)Nc1cc(S(=O)(=O)N2CCOCC2)ccc1Cl (configuration not stated) | active: 87.7%
20 | COc1ccc(C2(C)NC(=O)N(CC(=O)c3ccc4c(c3)OCO4)C2=O)cc1 (configuration not stated) | active: 53.4%
21 | O=C(C[C@@H]1CC[C@H]2[C@@H](COC[C@H](O)CN2C(=O)Nc2cccc(F)c2)O1)NCCCN1CCOCC1 | inactive: -9.2%
22 | COc1ccc(F)c(-c2nc(CN3CCN(C(=O)c4ccco4)CC3)c(C)o2)c1 | inconclusive: 44.6%
23 | CC(Oc1ccc2c3c(c(=O)oc2c1)CCC3)C(=O)NCc1cccnc1 (configuration not stated) | inconclusive: 36.7%
24 | C[C@@H]1CN([C@H](C)CO)C(=O)c2cc(NS(=O)(=O)c3cccs3)ccc2O[C@@H]1CN(C)C | inactive: -4.4%

Row | Structure (SMILES) | CPE inhibition
25 | Cc1nn(-c2ccccc2)c(C)c1C(=O)OC(C)C(=O)NC1CCCCC1 (configuration not stated) | inconclusive: 52.7%
26 | C[C@@H]1CCCCO[C@@H](CN(C)C(=O)Cc2ccccc2)[C@@H](C)CN([C@H](C)CO)C(=O)c2cc(N(C)C)ccc2O1 | inconclusive: 50.7%
27 | CCC(=O)N[C@@H]1CC[C@@H](CCn2cc(-c3cccc(OC)c3)nn2)O[C@@H]1CO | inconclusive: 29%
28 | O=C(O)C1=C[C@H](c2ccc3c(c2)OCO3)C[C@H](OCc2ccc(CO)cc2)O1 | inconclusive: 21.1%
29 | COc1ccc(NC(=O)Nc2ccc3c(c2)C(=O)N([C@@H](C)CO)C[C@H](C)[C@H](CN(C)S(=O)(=O)c2ccc(Cl)cc2)OCCCC[C@@H](C)O3)cc1 | inconclusive: 35.3%
30 | COc1ccc(NC(=O)CN(C)CC(=O)NCCc2ccc(F)cc2)cc1 | inconclusive: 43.3%
31 | COc1ccc(NC(=O)N(C)C[C@@H]2Oc3ncc(C#CCC(C)C)cc3C(=O)N([C@H](C)CO)C[C@H]2C)cc1 | inconclusive: 58.6%
32 | CCN1CCN(C(=O)CCc2nnc(CCc3c[nH]c4ccccc34)o2)[C@@H](C)C1=O | inconclusive: 31.1%
33 | COc1ccc(/C=N/Nc2nc(-c3cccnc3)nc3ccccc23)c(OC)c1 | inconclusive: 57.6%
34 | O=C(c1cnccn1)N1C[C@@H]2N[C@H](C1)C2c1ccc(/C=C/c2ccccc2)cc1 (some centres not stated) | inconclusive: 29%
35 | Cc1noc(C)c1S(=O)(=O)Nc1ccc2c(c1)C(=O)N([C@H](C)CO)C[C@H](C)[C@H](CN(C)C(=O)Nc1ccccc1)O2 | inactive: -1.36%
36 | CCn1c(SCC(=O)N/N=C/C=C\c2ccco2)nc2ccccc21 | inconclusive: 22.2%
37 | CO[C@H]1CN(C)C(=O)c2cc(NS(C)(=O)=O)ccc2OC[C@H](C)N(C(=O)CN(C)C)C[C@@H]1C | active: 63.6%
38 | C[C@H]1CCCCO[C@@H](CN(C)C(=O)Nc2cccc3ccccc23)[C@@H](C)CN([C@@H](C)CO)C(=O)c2cc(NS(=O)(=O)c3ccccc3)ccc2O1 | inconclusive: 32.7%
39 | COc1cccc(-c2ccc3c(c2)[C@@H]2[C@@H](CCN2C(=O)C2CC2)[C@H](CO)N3)c1 | inactive: -2.21%
40 | Nc1c(-c2ccccc2)c(CSc2nc3ccccc3[nH]2)nn1-c1ccc(Cl)cc1 | inactive: 3.64%
41 | CN1CCN(C(c2ccccc2)c2ccc(Cl)cc2)CC1 (configuration not stated) | inconclusive: 47.3%
42 | O=C(COc1ccc2c(-c3ccccc3)cc(=O)oc2c1)NC1CCS(=O)(=O)C1 (configuration not stated) | active: 143%
43 | O=C(Cn1c(NCCO)nc2ccccc21)NCC1CCCO1 (configuration not stated) | inactive: -6.1%
44 | CCC(=O)N1CC[C@@H]2[C@@H](CO)Nc3ccc(-c4ccc(OC)cc4)cc3[C@@H]21 | active: 131%
45 | CCN(CC(=O)Nc1c(F)cccc1F)C(=O)CCCc1cccs1 | inconclusive: 40.9%
46 | O=C1OCCOC2CCCc3oc(C4=CCCCC4)c1c32 (configuration not stated) | inconclusive: 27.6%
47 | C[C@H](CO)N1C[C@H](C)[C@@H](CN(C)S(=O)(=O)c2ccc(Cl)cc2)Oc2c(NC(=O)C3CCCCC3)cccc2C1=O | inconclusive: 62%
48 | Cc1ccc(NC(=O)Nc2cnccn2)cc1 | inconclusive: 20%

In the list so far, 4 contain an NH in an aromatic ring:
Row | Structure (SMILES) | CPE inhibition
6 | COc1cc(OC)cc(C(=O)NCCc2cnc[nH]2)c1 | inconclusive: 30.3%
15 | COc1ccc2c3c([nH]c2c1)[C@H](CO)N(C(=O)c1ccc(F)cc1)CC31CN(Cc2cccnc2)C1 | active: 44.6%
32 | CCN1CCN(C(=O)CCc2nnc(CCc3c[nH]c4ccccc34)o2)[C@@H](C)C1=O | inconclusive: 31.1%
40 | Nc1c(-c2ccccc2)c(CSc2nc3ccccc3[nH]2)nn1-c1ccc(Cl)cc1 | inactive: 3.64%

Further structures:

Row | Structure (SMILES) | CPE inhibition
49 | CC1CCCN(CCCNC(=O)c2cc3c(s2)-c2ccccc2OC3)C1 (configuration not stated) | inconclusive: 32.8%
50 | C=CCc1c(C)nc(SCCC)[nH]c1=O | inconclusive: 27.9%
51 | CN1C(=O)c2cc(NC(=O)C3CCCC3)ccc2OC[C@H]2O[C@H](CC(=O)NCCc3ccncc3)CC[C@H]21 | active: 166%
52 | CCCC(=O)Nc1ccc2c(c1)C(=O)N(C)C[C@H](OC)[C@H](C)CN(CCC(F)(F)F)[C@@H](C)CO2 | active: 22.5%
53 | O=C(O)/C=C/C(=O)c1c(-c2ccccc2)[nH]c2ccccc12 | inconclusive: 21.2%
54 | C[C@@H]1CN([C@@H](C)CO)C(=O)c2cccc(NC(=O)c3ccncc3)c2O[C@@H]1CN(C)S(=O)(=O)c1ccc(Cl)cc1 | inconclusive: 24.8%
55 | C[C@H](CO)N1C[C@H](C)[C@H](CN(C)Cc2ccc(C(=O)Nc3ccccc3N)cc2)Oc2c(NS(=O)(=O)c3cn(C)cn3)cccc2C1=O | active: 33.8%
56 | Cc1ccc(-c2ccc(SCC(=O)NC3CCCCC3)nn2)cc1 | inconclusive: 61.1%
57 | O=S(=O)(NCCO)c1cccc2cccnc12 | inconclusive: 26.8%
58 | CC(=O)N[C@H]1CC[C@@H](CCNC(=O)C2CCC2)O[C@H]1CO | inactive: -8.02%
59 | C[C@H]1CN([C@@H](C)CO)C(=O)c2cc(/C=C/c3ccccc3)cnc2O[C@H]1CN(C)C(=O)Nc1ccccc1F | inconclusive: -2.18%
60 | CCOC(CCn1ccc(O)c(Cc2ccc(Cl)cc2)c1=O)OCC | inconclusive: 20.3%
61 | O=C(COc1ccc(Br)cc1F)Nc1nnc(C2CC2)s1 | inconclusive: 28.2%
62 | C[C@H]1CN([C@@H](C)CO)C(=O)c2cc(C#CCN(C)C)cnc2O[C@@H]1CN(C)Cc1cccc(C(=O)O)c1 | inconclusive: 89%
63 | COc1ccc(Cl)cc1N1CC(c2nc3ccccc3[nH]2)CC1=O (configuration not stated) | inconclusive: 38%
64 | COc1ccccc1S(=O)(=O)N[C@H]1CC[C@@H](CC(=O)NCc2cccc(F)c2)O[C@@H]1CO | inconclusive: 29.8%
65 | Cc1c(Cl)cccc1NC(=O)CSc1ncnc2c1cnn2CCO | inconclusive: 47.6%
66 | COc1ccc(S(=O)(=O)Nc2ccc3c(c2)C(=O)N([C@@H](C)CO)C[C@H](C)[C@H](CN(C)C(=O)c2ccccc2)OCCCC[C@@H](C)O3)cc1 | inactive: 15.5%
67 | C[C@@H]1CN([C@H](C)CO)C(=O)c2cc(NC(=O)Nc3ccc(F)cc3)ccc2O[C@@H](C)CCCCO[C@H]1CN(C)Cc1ccc(C(=O)O)cc1 | inconclusive: 40.7%
68 | O=C(C[C@@H]1CC[C@@H](NC(=O)CC2CC2)[C@@H](CO)O1)NCC(F)(F)F | active: 61.8%
69 | COc1ccc(N2CCN(C(=O)CN3C(=O)NC(c4ccc(OC)cc4)(c4ccc(OC)cc4)C3=O)CC2)cc1 | inconclusive: 26.5%
70 | C[C@@H]1CN([C@H](C)CO)C(=O)Cc2cc(NS(=O)(=O)c3cccs3)ccc2O[C@H]1CN(C)Cc1ccc(C(=O)Nc2ccccc2N)cc1 | active: 38.9%
71 | O=C(O)c1ccc(CS(=O)(=O)Cc2ccccc2F)o1 | inactive: -10.3%
72 | C[C@@H](NC(=O)C[C@H]1CC[C@H](NC(=O)Nc2ccc3c(c2)OCO3)[C@@H](CO)O1)c1ccccc1 | inconclusive: 45%

Copied from the list.
`C[C@H]1CN([C@@H](C)CO)C(=O)c2cc(C#CCN(C)C)cnc2O[C@@H]1CN(C)Cc1cccc(C(=O)O)c1` – CPE inhibition: inconclusive: 89%
`O=C(O)/C=C/C(=O)c1c(-c2ccccc2)[nH]c2ccccc12` – CPE inhibition: inconclusive: 21.2%
